Binding data for two substances are collected here from PMC8058342.

Sequences of proteins named here, by UniProt entry; tags and fusion partners are left off. A change or cut given only in a name is not applied to a line headed by its entry. A line that says so, or that is headed by a name, gives the form on record, which may keep a tag or linker. Residues count along the entry.
UniProt P20827, residues 19-182: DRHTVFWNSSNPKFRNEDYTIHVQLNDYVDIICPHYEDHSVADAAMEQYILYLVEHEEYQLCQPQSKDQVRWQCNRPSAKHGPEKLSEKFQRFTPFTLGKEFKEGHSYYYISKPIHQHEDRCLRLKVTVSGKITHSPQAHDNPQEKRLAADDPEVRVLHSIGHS
mCherry-tagged full-length EphA2 (P29317, residues 24-976): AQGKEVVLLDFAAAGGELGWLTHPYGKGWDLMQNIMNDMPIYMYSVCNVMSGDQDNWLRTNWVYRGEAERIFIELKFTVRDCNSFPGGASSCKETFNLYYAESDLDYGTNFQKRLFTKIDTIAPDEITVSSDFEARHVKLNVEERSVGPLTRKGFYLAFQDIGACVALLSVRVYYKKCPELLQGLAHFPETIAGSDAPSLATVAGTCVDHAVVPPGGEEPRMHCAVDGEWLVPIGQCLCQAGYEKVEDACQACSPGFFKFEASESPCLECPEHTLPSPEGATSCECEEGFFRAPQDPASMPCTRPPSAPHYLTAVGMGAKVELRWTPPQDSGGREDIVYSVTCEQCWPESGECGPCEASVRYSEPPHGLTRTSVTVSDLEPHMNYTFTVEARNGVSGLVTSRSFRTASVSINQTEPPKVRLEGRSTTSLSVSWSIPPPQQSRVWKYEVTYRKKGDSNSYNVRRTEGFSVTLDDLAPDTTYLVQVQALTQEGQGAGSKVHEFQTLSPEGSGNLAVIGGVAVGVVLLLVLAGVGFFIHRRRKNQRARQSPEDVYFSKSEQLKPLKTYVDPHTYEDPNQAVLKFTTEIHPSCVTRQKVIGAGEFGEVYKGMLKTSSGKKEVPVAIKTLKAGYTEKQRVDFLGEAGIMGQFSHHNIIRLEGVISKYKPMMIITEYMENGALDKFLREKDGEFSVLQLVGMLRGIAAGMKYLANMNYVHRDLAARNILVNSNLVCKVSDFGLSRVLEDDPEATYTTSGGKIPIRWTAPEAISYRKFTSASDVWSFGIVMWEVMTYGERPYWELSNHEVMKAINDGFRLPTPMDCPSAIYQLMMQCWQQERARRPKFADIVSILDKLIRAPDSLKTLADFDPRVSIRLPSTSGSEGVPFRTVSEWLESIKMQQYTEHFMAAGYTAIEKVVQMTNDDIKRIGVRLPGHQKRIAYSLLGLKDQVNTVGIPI
mCherry-tagged EphA2-S897A (Ser897 mutated to alanine) (P29317, form named): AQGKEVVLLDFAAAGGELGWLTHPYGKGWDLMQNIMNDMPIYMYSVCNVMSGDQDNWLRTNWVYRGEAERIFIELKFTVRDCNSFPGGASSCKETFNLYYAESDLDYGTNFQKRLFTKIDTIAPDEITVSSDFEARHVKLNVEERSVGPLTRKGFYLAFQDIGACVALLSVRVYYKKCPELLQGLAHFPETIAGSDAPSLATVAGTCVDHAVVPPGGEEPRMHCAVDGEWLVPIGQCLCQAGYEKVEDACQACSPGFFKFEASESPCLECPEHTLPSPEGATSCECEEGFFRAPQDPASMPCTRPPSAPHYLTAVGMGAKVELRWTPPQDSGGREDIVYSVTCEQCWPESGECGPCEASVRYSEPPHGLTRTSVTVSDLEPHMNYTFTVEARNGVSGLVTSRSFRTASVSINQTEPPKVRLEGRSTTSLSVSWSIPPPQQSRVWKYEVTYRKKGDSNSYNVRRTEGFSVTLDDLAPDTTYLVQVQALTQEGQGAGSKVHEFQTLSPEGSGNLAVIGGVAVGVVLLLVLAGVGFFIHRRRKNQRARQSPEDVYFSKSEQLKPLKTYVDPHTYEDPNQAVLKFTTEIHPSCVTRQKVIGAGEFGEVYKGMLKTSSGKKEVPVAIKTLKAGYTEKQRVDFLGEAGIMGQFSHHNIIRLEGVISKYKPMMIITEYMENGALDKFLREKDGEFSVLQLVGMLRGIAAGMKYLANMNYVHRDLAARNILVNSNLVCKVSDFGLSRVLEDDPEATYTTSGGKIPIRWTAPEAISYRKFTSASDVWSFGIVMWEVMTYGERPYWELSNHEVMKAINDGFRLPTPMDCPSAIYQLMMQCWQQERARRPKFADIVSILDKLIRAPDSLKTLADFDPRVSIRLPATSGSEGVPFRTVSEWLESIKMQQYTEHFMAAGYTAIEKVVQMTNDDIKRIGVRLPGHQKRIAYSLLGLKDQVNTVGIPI

These are yes or no findings as the source states them, for the method shown. In cells and extracts the contact can be indirect. Some entries that bind do so weakly or less than the wild type.

For the assay, the target named is Flag-tagged Ephrin A1 (human) (UniProt P20827). As to the kind of experiment: co-IP; Flag-Ephrin A1 co-transfected with mCherry-EphA2 or mutants in HEK-293T; lysis in 40 mM Tris, 150 mM NaCl, 1% Triton X-100, 50 mM NaF, 5 mM Na3VO4, 2 mM EDTA; precipitated with anti-Flag antibody and protein A agarose, Western blot.

Turning to “mCherry-tagged EphA2-S897A (Ser897 mutated to alanine) (from UniProt P29317 24-976) (receptor)”, the binding entry is reported as “binds”.

With “mCherry-tagged full-length EphA2 (from UniProt P29317 24-976) (receptor)”, the binding result is given as “binds”.
